# Values joined by “and” are separate entries in the source; they are usually repeats but may differ in a detail not shown here. Equal entries are not always repeated. Among all 400,000 compounds or so, about 13,000 (3.2%) were called active. The shares of active, inactive and inconclusive entries below differ from those in the screen. The call rests on the fitted dose curve; in most records, active means well fitted cell-killing curve with a large enough effect; inconclusive means small, poorly fitted or top-dose-only effect, or effect the other way; inactive means flat fitted curve, though single readings scatter. Potencies beside an inconclusive call are fits to weak or partial responses and may not hold up.
# Assay: qHTS assay for MDR1-selective chemotherapeutics: Primary screen using the drug-selected MDR subline cells KB-V1; further: nearly all actives have a fitted effect of over 60% in size
# Details: KB-V1 MDR cells viability, CellTiter-Glo, 72 h; activity change, negative = cytotoxicity: at 46.1 µM (top of the series)
# How it was run: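 qHTS viability screen in drug-selected KB-V1 MDR cells: 72 h compound treatment at 37 degrees C, ATP luminescence end point.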
# On the % scale 0 is the no-effect control and ±100 the full control effect; potency means the concentration at half of the fitted maximal effect.
SMILES,Potency,"activity change, negative = cytotoxicity"
O=C(CCSCCc1ccccn1)Nc1c(F)cc(F)cc1Br,active: 16.4 µM,
COc1ccc(-n2ncc3c(=O)n(CC(=O)N(C(C)C)C(C)C)cnc32)cc1,,inactive: 1.22%
COc1ccccc1CNC(=O)CN(Cc1ccc(Cl)cc1)S(C)(=O)=O,"inconclusive: 16.4 µM [cytotoxic, single point]",
CCCN(Cc1nnc(-c2cccs2)o1)C(=O)c1cccc(S(=O)(=O)N2CCOCC2)c1,active: 23.1 µM,
O=C(CCc1c[nH]c2ccccc12)NC1CC1,,inconclusive: 18.6%
Cc1cccn2c(=O)c3cc(C(=O)NC4CCCCC4)c(=N)n(Cc4ccccc4)c3nc12,"inconclusive: 29.1 µM [cytotoxic, partial curve, poor fit]",
Cc1ccc(NC(=O)CSc2ncccn2)cc1S(=O)(=O)N1CCOCC1,"inconclusive: 20.6 µM [cytotoxic, partial curve, poor fit]",
CCCc1nn(C)c2c(=O)[nH]c(-c3ccccc3OCC)nc12,,inactive: 6.94%
COc1cc(OC)c(OC)cc1CNC(=O)c1cc(S(=O)(=O)N(C)c2ccccc2OC)ccc1C,"inconclusive: 0.92 µM [rising, full curve]",
CCn1c(COc2cccc(OC)c2)nnc1SCC(=O)Nc1ccccc1C(=O)OC,"inconclusive: 14.6 µM [cytotoxic, partial curve]",
O=c1ccn(-c2cccc(C(F)(F)F)c2)nc1-c1ccn(-c2ccccc2F)n1,"inconclusive: 7.31 µM [cytotoxic, partial curve]",
Cc1cc(C)cc(NC(=O)CCC(=O)N2CCSc3ccccc32)c1,,inactive: -16.8%
O=C(CN1CCN(Cc2ccccc2Cl)C1=O)NC1CCCCCC1,"inconclusive: 20.6 µM [cytotoxic, partial curve]",
C(=N\N1CCOCC1)/c1nc(-c2ccccc2)n2ccccc12,,inactive: 1.73%
COc1cc(NC(=O)CCC(=O)N2CCN(S(=O)(=O)c3ccc(C)cc3)CC2)cc(OC)c1,active: 18.4 µM,
O=C(CCCOc1ccccc1)N1CCN(S(=O)(=O)c2cccc(F)c2)CC1,"inconclusive: 8.2 µM [cytotoxic, partial curve, poor fit]",
COc1ccc(-c2cc3nc(C)cc(N4CCN(C(=O)c5cccnc5)CC4)n3n2)cc1,"inconclusive: 20.6 µM [rising, partial curve]",
COc1cc(Cl)c(C)cc1NC(=O)c1cnc(N2CCOCC2)c2ccccc12,,inactive: -4.05%
COc1ccc(Nc2ncnc3c2cnn3-c2ccccc2)cc1OC,,inactive: -5.86%
O=C(c1ccc2nc3ccccc3c(=O)n2c1)N1CCN(Cc2ccc3c(c2)OCO3)CC1,,inactive: -5.27%
Cc1ccc(/C=C2\SC(=S)N(CC(=O)Nc3cccnc3)C2=O)cc1,,inactive: 3.49%
O=C(NCCO)c1ccc2c(c1)S(=O)(=O)c1ccccc1C2=O,"inconclusive: 0.58 µM [cytotoxic, full curve, poor fit]",
Cc1ccc(NC(=O)CSc2nc3sc(C)cc3c(=O)n2C)cc1,"inconclusive: 5.8 µM [cytotoxic, full curve, poor fit]",
COc1cc(C(=O)Nc2nc3ccccc3[nH]2)cc(OC)c1OC,"inconclusive: 14.6 µM [cytotoxic, single point]",
Cn1nc(NC(=O)C(F)(F)F)c2ncc(-c3ccccc3)nc21,active: 18.4 µM,

SMILES,Potency,"activity change, negative = cytotoxicity"
O=C(COC(=O)Cc1c[nH]c2ccccc12)Nc1ccccc1,,inactive: 25.6%
Cc1noc(C)c1COc1cccc(C(=O)Nc2ccc(C#N)cc2)c1,"inconclusive: 23.1 µM [cytotoxic, partial curve, poor fit]",
CCN(C(=O)Cn1cnc2onc(-c3ccc(F)cc3)c2c1=O)c1ccc(OC)cc1,,inactive: -7.74%
COc1ccc(C(=O)CSc2nnc(-c3ccc(C)cc3)o2)cc1,"inconclusive: 20.6 µM [cytotoxic, partial curve, poor fit]",
O=C(CCSc1ccc(Cl)cc1)c1cccs1,"inconclusive: 0.103 µM [rising, full curve, poor fit]",
Cc1ccc(S(=O)(=O)N(Cc2cc3ccc(C)cc3[nH]c2=O)c2ccccc2)cc1,,inactive: -18.8%
Cc1occc1C(=O)N1CCN(c2ccc(Cl)cc2)CC1,"inconclusive: 20.6 µM [cytotoxic, single point]",
COC(=O)c1cc(C(=O)OCC(=O)c2ccc[nH]2)cc([N+](=O)[O-])c1,"inconclusive: 29.1 µM [rising, single point]",
CC(=O)c1cccc(NC(=O)CSc2nc(N3CCCCC3)nc(N3CCCCC3)n2)c1,,inactive: -16.5%
Cc1ccccc1C1CCCN(Cc2nc(C3CC3)no2)C1 (stereo not drawn),"inconclusive: 29.1 µM [cytotoxic, single point]",
Cn1nc(C(F)(F)F)c(/C=N/OC(=O)c2ccccc2)c1SCc1ccccc1Cl,active: 11.6 µM,
Cc1oc2ncn(CC(C)C)c(=O)c2c1C(=O)NC(C)c1ccccc1 (stereo not drawn),"inconclusive: 23.1 µM [cytotoxic, partial curve, poor fit]",
Cc1ccccc1OCCn1cnc2cc([N+](=O)[O-])ccc2c1=O,"inconclusive: 23.1 µM [cytotoxic, single point]",
O=C(Nc1nccs1)c1ccc(COc2ccc(Cl)cc2)o1,"inconclusive: 29.1 µM [cytotoxic, single point]",
O=C(Cn1cncn1)c1ccccc1Br,"inconclusive: 29.1 µM [rising, single point]",
COc1ccc(NS(=O)(=O)c2csc(C(N)=O)c2)cc1OC,,inactive: 0%
O=C(O)C(C(O)c1ccc([N+](=O)[O-])cc1)[n+]1ccccc1 (stereo not drawn),"inconclusive: 23.1 µM [rising, single point]",
COC(=O)c1cc(NC(=O)CC(=O)c2cccc(N)c2)cc(C(=O)OC)c1,,inactive: 2.06%
CCCc1cc(C(=O)N2CCCC(C(=O)c3cc(C)c(OC)c(C)c3)C2)n(C)n1 (stereo not drawn),"inconclusive: 5.17 µM [cytotoxic, full curve, poor fit]",
O=S(=O)(c1ccccc1S(=O)(=O)N1CCCCC1)N1CCCCC1,active: 14.6 µM,
CCOc1ccc(Nc2nnc(-n3nc(C)cc3C)c3ccccc23)cc1,,inactive: -29.4%
COc1ccc(C(=O)Nc2ccc3c(c2)CCCN3C(=O)c2cccs2)c(OC)c1,"inconclusive: 23.1 µM [cytotoxic, single point] and inconclusive: 29.1 µM [cytotoxic, partial curve, poor fit]",
Cc1ccc(Cl)c2c1NC(=O)C2(O)CC(=O)c1ccccc1O (stereo not drawn),"inconclusive: 25.9 µM [cytotoxic, single point]",
CCn1c(=O)c(C(=O)NNS(=O)(=O)c2ccc(Cl)cc2)c(O)c2ccccc21,active: 14.6 µM,
Cn1nnc(NC(=S)NC(=O)c2cccc3c(Br)cccc23)n1,,inactive: 16.9%

SMILES,Potency,"activity change, negative = cytotoxicity"
Cc1noc(C)c1CSCC(=O)NCCN1C(=O)S/C(=C\c2ccccc2F)C1=O,,inactive: -25.4%
COc1cc2ncnc(NCc3ccco3)c2cc1OC,,inactive: 0.432%
COc1ccc(NC(=O)c2cccc(NC(=O)c3ccccc3)c2)c(OC)c1,"inconclusive: 5.17 µM [cytotoxic, full curve]",
COCCNC(=O)c1cc2c(-c3ccccc3F)nn(C)c2s1,,inactive: -26.4%
Cc1ccc2c(c1)CCCN2C(=O)c1ccncc1,,inactive: -4.26%
Cc1ccc(/C=C/c2onc(C)c2S(=O)(=O)N2CCC(C(=O)N3CCN(c4ccccc4F)CC3)CC2)cc1,,inactive: 0%
C[C@H]1Cn2cnc(C(=O)N[C@H](C)c3ccccc3)c2C(=O)N1,,inactive: -24.1%
O=C(NCc1nc2ccccc2[nH]1)c1c(F)cccc1F,,inactive: -4.75%
CCOc1ccc(S(=O)(=O)N2CCC(C(=O)OC(C)C(=O)N(C)C3CCCCC3)CC2)cc1 (stereo not drawn),"inconclusive: 2.59 µM [cytotoxic, full curve, poor fit]",
COc1ccc(-n2ncc3c(NCc4ccco4)ncnc32)cc1,active: 20.6 µM,
Cc1ccccc1Cc1c(C)nc2c(C(=O)NCc3ccco3)cnn2c1C,"inconclusive: 4.11 µM [cytotoxic, partial curve]",
Cc1cnc(N)c2c(=O)oc3ccccc3c12,"inconclusive: 29.1 µM [cytotoxic, single point]",
CCCC(=O)Nc1c(-c2ccccc2Cl)c(=O)c2ccccc2n1C,,inactive: 0%
CC(C)(C)C(=O)NC1CCN(S(=O)(=O)c2ccc(C(F)(F)F)cc2)CC1,"inconclusive: 23.1 µM [rising, partial curve, poor fit]",
COC(=O)C1=C(C)NC(=O)NC1c1ccsc1 (stereo not drawn),"inconclusive: 5.8 µM [rising, full curve]",
COc1cc(CN2C[C@@H](CO)O[C@@H](n3cnc4c(N(C)C)ncnc43)C2)cc(OC)c1OC,,inactive: -14.6%
O=C(Cn1cc(COc2ccc(Cl)c(Cl)c2)nn1)NS(=O)(=O)c1ccccc1OC(F)(F)F,,inactive: 1.51%
O=C(NCCC(=O)N1CCN(c2ccccc2F)CC1)c1ccco1,,inactive: -18.7%
COc1ccc(OC)c(NC(=O)CSc2nnc(CNC(=O)c3cc(OC)c(OC)c(OC)c3)o2)c1,"inconclusive: 20.6 µM [rising, single point]",
COc1ccc(OC)c(N(CC(=O)N2CCc3ccccc3C2)S(C)(=O)=O)c1,"inconclusive: 18.4 µM [cytotoxic, partial curve, poor fit]",
COc1ccc(-c2noc(CCC(=O)Nc3cccnc3)n2)cc1OC,"inconclusive: 20.6 µM [cytotoxic, single point]",
Cc1ccc(-c2cc(NC(=O)CCl)n(-c3ccccc3)n2)cc1,"inconclusive: 20.6 µM [cytotoxic, single point]",
CC(Nc1cccnc1)=C(C#N)C#N,"inconclusive: 29.1 µM [rising, single point]",

# For reference, part of the list above.
SMILES,Potency,"activity change, negative = cytotoxicity"
Cc1ccc2c(c1)CCCN2C(=O)c1ccncc1,,inactive: -4.26%
Cc1ccc(/C=C/c2onc(C)c2S(=O)(=O)N2CCC(C(=O)N3CCN(c4ccccc4F)CC3)CC2)cc1,,inactive: 0%
C[C@H]1Cn2cnc(C(=O)N[C@H](C)c3ccccc3)c2C(=O)N1,,inactive: -24.1%
O=C(NCc1nc2ccccc2[nH]1)c1c(F)cccc1F,,inactive: -4.75%
CCOc1ccc(S(=O)(=O)N2CCC(C(=O)OC(C)C(=O)N(C)C3CCCCC3)CC2)cc1 (stereo not drawn),"inconclusive: 2.59 µM [cytotoxic, full curve, poor fit]",
COc1ccc(-n2ncc3c(NCc4ccco4)ncnc32)cc1,active: 20.6 µM,
Cc1ccccc1Cc1c(C)nc2c(C(=O)NCc3ccco3)cnn2c1C,"inconclusive: 4.11 µM [cytotoxic, partial curve]",
Cc1cnc(N)c2c(=O)oc3ccccc3c12,"inconclusive: 29.1 µM [cytotoxic, single point]",
CCCC(=O)Nc1c(-c2ccccc2Cl)c(=O)c2ccccc2n1C,,inactive: 0%
CC(C)(C)C(=O)NC1CCN(S(=O)(=O)c2ccc(C(F)(F)F)cc2)CC1,"inconclusive: 23.1 µM [rising, partial curve, poor fit]",
COC(=O)C1=C(C)NC(=O)NC1c1ccsc1 (stereo not drawn),"inconclusive: 5.8 µM [rising, full curve]",
COc1cc(CN2C[C@@H](CO)O[C@@H](n3cnc4c(N(C)C)ncnc43)C2)cc(OC)c1OC,,inactive: -14.6%
O=C(Cn1cc(COc2ccc(Cl)c(Cl)c2)nn1)NS(=O)(=O)c1ccccc1OC(F)(F)F,,inactive: 1.51%
O=C(NCCC(=O)N1CCN(c2ccccc2F)CC1)c1ccco1,,inactive: -18.7%
COc1ccc(OC)c(NC(=O)CSc2nnc(CNC(=O)c3cc(OC)c(OC)c(OC)c3)o2)c1,"inconclusive: 20.6 µM [rising, single point]",
COc1ccc(OC)c(N(CC(=O)N2CCc3ccccc3C2)S(C)(=O)=O)c1,"inconclusive: 18.4 µM [cytotoxic, partial curve, poor fit]",
COc1ccc(-c2noc(CCC(=O)Nc3cccnc3)n2)cc1OC,"inconclusive: 20.6 µM [cytotoxic, single point]",
